Patent publication US20090143285A1, “TARGET PROTEIN AND TARGET GENE FOR DRUG DISCOVERY AND SCREENING METHOD” (REVERSE PROTEOMICS RESEARCH INSTITUTE CO., LTD., priority 2005, published 2009)
“Also recorded” adds a separate entry of the source. Read-outs that look alike come from different tables or passages of the source.

Protein sequences, listed by entry. Tags and fused reporters are not part of them.
UniProt P09104, whole entry: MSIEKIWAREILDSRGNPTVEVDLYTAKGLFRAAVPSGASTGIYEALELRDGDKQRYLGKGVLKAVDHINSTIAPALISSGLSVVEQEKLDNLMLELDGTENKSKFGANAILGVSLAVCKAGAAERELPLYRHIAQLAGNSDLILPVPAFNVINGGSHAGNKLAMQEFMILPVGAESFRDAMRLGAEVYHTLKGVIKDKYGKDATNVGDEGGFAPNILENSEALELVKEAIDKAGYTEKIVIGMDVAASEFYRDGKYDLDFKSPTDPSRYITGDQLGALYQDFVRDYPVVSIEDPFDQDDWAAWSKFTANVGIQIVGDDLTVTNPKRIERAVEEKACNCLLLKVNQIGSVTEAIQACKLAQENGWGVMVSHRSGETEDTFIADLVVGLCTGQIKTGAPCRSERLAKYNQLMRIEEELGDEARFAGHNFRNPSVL

What was measured:
[1] = test system: FLJXXXXX-derived proteins; assay: SEC/MS spin column interaction analysis of FLJXXXXX-derived proteins and various compounds (Tables 30-1 to 30-4); assay type: binding, human; conditions: SEC spin column filtrate, spectral intensity increased with doses of compound and protein
FLJ42665-derived protein = FLJ42665-derived protein (Homo sapiens, UniProt P09104)
Excerpt: To analyze the interactions between commonly used drugs and proteins expressed from human full-length cDNA clones while keeping both the proteins and the compounds in non-modified, non-immobilized state, size exclusion chromatography (SEC) and mass analysis were used in combination. The specific procedures are shown below.
The compound-protein mixture prepared in step 1 was subjected to chromatography using an SEC column, the compound and the protein were separated by SEC, and the compound that interacted with the bound compound or protein contained in the protein fraction was analyzed using a mass analyzer.
Protein concentrations were measured using BCA Protein Assay (PIERCE), in consideration of the purity calculated by SDS-PAGE.
Mass analysis was performed using LCQ DECA XP (Thermoelectron) or Q-TOF micro (Micromass), equipped with an ESI probe. The LC pump used was Agilent 1100 (Yokogawa Analytical Systems), and the autosampler used was HTC-PAL (CTC Analytics) equipped with a cooling stacker. The SEC column used was a micro-LC column or a 384-well spin column. […]
In the 384-well spin column method, Unifilter 100 (Whatman), packed with 10 μL (dry volume) of Bio-Gel P6 (BIO-RAD) and swollen with milliQ water, was used as the SEC column. […] The SEC spin column was mounted on an acetonitrile-aliquoted 384-well U-bottom plate and centrifuged; the SEC spin column filtrate, which is a protein fraction, was recovered in 50% acetonitrile. The protein precipitate produced by the acetonitrile was removed via centrifugation and filtration for deproteinization; the resulting filtrate was concentrated by centrifugal concentration and re-dissolved in 10 μL of 50% methanol to obtain a mass analysis sample. The mobile phase supplied to the mass analyzer was 0.1% formic acid/50% methanol solution in the positive ion mode, and 0.1% ammonia/50% methanol solution in the negative ion mode; these mobile phases were used at a flow rate of 40 μL/min. 2-μL of mass analysis samples were injected using an autosampler at 2-minute intervals; the mass spectral intensity of the compound was measured to retrieve the spectral intensity of the pharmaceutical compound contained in the SEC spin column filtrate (protein fraction eluted from SEC).

Compound | FLJ No of the derived protein with which the compound was judged to exhibit a concentration-dependent interaction [1] | spectrum intensity of the compound in the SEC spin column filtrate (FLJ42665-derived protein; compound 12.5 μM, protein 0 μM) | spectrum intensity of the compound in the SEC spin column filtrate (FLJ42665-derived protein; compound 12.5 μM, protein 5 μM) | spectrum intensity of the compound in the SEC spin column filtrate (FLJ42665-derived protein; compound 12.5 μM, protein 10 μM) | spectrum intensity of the compound in the SEC spin column filtrate (FLJ42665-derived protein; compound 12.5 μM, protein 25 μM) | spectrum intensity of the compound in the SEC spin column filtrate (FLJ42665-derived protein; compound 25 μM, protein 0 μM) | spectrum intensity of the compound in the SEC spin column filtrate (FLJ42665-derived protein; compound 25 μM, protein 5 μM) | spectrum intensity of the compound in the SEC spin column filtrate (FLJ42665-derived protein; compound 25 μM, protein 10 μM) | spectrum intensity of the compound in the SEC spin column filtrate (FLJ42665-derived protein; compound 25 μM, protein 25 μM) | spectrum intensity of the compound in the SEC spin column filtrate (FLJ42665-derived protein; compound 62.5 μM, protein 0 μM) | spectrum intensity of the compound in the SEC spin column filtrate (FLJ42665-derived protein; compound 62.5 μM, protein 5 μM) | spectrum intensity of the compound in the SEC spin column filtrate (FLJ42665-derived protein; compound 62.5 μM, protein 10 μM) | spectrum intensity of the compound in the SEC spin column filtrate (FLJ42665-derived protein; compound 62.5 μM, protein 25 μM) | interaction judged from spectrum intensity of the compound in the SEC spin column filtrate (protein fraction eluted from SEC) (FLJ42665-derived protein; spin column method, doses of both compound and protein varied)
CC(C)(C)CC(C)(C)c1ccc(OCCOCC[N+](C)(C)Cc2ccccc2)cc1 [benzethonium] | FLJ42665; also recorded: FLJ35353 | 19475 | 26605 | 47666 | 130631 | 27192 | 21193 | 31214 | 124057 | 14420 | 28967 | 32809 | 108557 | dose-dependent interaction
CC(C)(C)c1ccc(C(=O)CCCN2CCC(OC(c3ccccc3)c3ccccc3)CC2)cc1 [ebastine] | FLJ35353 |  |  |  |  |  |  |  |  |  |  |  |  | 
